No constants are given. Whether binding was seen depends on the method and setting. Binding seen in cells or lysates may run through a third protein. Some results given as binding are weak or reduced against the parent protein; the word gives no strength.
Molecular target: 6x histidine-tagged EBNA1 a.a. 379-641 WT (Epstein-Barr virus (Human herpesvirus 4)) (UniProt P03211)
Test: pull-down; only the target purified

Amino acid sequences for entries named in this document (tags omitted). Residues count along the entry.
UniProt P03211, residues 379-641: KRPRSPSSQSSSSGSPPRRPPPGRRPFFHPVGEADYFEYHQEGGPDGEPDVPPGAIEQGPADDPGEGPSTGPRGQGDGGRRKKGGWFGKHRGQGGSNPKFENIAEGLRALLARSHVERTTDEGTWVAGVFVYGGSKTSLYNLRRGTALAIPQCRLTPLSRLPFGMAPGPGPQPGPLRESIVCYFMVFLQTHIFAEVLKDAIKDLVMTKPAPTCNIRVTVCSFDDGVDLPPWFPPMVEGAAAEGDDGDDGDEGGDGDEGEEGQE
UniProt P28482: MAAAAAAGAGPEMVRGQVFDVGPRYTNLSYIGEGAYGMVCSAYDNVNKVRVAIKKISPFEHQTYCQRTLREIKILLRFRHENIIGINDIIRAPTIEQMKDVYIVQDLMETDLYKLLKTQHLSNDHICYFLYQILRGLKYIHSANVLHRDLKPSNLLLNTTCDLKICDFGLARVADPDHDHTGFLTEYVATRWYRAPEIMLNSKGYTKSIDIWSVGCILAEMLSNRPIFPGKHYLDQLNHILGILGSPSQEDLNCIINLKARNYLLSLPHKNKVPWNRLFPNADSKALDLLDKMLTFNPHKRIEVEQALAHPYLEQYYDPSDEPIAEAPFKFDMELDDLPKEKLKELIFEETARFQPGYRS

“ERK2 (extracellular signal-regulated kinase 2) (from UniProt P28482 1-360) (enzyme)” was tested, and the binding was “binds”.
